Laboratory results published in patent US20240158754A1, “REDUCING HIGH MANNOSE GLYCAN PROTEIN EXPRESSION USING GUANOSINE 5'-MONOPHOSPHATE” (MERCK SHARP & DOHME LLC, priority 2021, published 2024).

What was measured:
Assay type in all cases: cell-based, Chinese hamster
[1] = test system: recombinant CHO cell line expressing mAb C; test: 10-day fed-batch assay with GMP (Example 2); conditions: for High Molecular Weight / Main Peak / Total Acidic Charge Variants: values relative to control
Method: (§1) Cells were cultured in Merck proprietary chemically defined media in increasing volume to obtain sufficient number of cells for inoculation. For cell lines expressing mAb A and mAb B, cells were seeded at 0.5×10^6 cells per mL into Merck proprietary chemically defined production medium in two 1 L Erlenmeyer flasks at a final volume of 250 mL in each flask. For cell line expressing mAb C, cells were seeded at 1.0×10^6 cells per mL into production medium in two 1 L Erlenmeyer flasks at a final volume of 250 mL in each flask. Cells were incubated at 36.5° C., with agitation at 100 rpm, in presence of 5% CO2, and humidity ≥70%. Merck proprietary chemically defined nutrient feed media were added to all the cultures on day 3, day 6, and day 8. On Day 6, cells from both 1 L flasks for each cell line were pooled and then aliquoted in 125 mL Erlenmeyer flasks with 30 mL working volume, respectively. A 200 mM stock solution of GMP was prepared by adding Guanosine 5′-monophosphate disodium salt hydrate (Sigma Aldrich, St. Louis, MO) in purified water. After the cells were aliquoted in separate 125 mL test flasks on day 6, GMP was added to the cultures at final concentration of 1 mM or 10 mM. No change in pH and osmolality was observed as a result of the GMP addition. A control condition with no added GMP was also created for each cell line. All conditions were run with two replicates. All cultures were harvested on day 10.
(§2) Cell culture parameters were analyzed on day 0, 3, 6, 8 and 10, and the corresponding spent medium supernatants were evaluated for antibody titer, charge variants, and glycan analysis on day 10 to assess the effect of GMP on cell growth, viability, titer, and glycan profile of the recombinant antibodies. Cell density and viability were measured using the trypan blue exclusion method with Cedex Bio Analyzer (Roche Diagnostics GmbH, Mannheim, Germany). Culture pH was measured using ABL80 Blood/Gas Analyzer (Radiometer, Denmark). Cell culture metabolites were measured using RX Imola (Randox Laboratories Ltd. Crumlin, UK) and osmolality was measured using a micro-Osmometer 2020 (Advanced Instruments, Norwood, MA).
(§3) Antibody titer was analyzed using a mAb-specific reverse-phase high-performance liquid chromatography (HPLC) or analytical Protein A HPLC method. Multiple product quality attributes were analyzed on harvested cell-culture fluid (HCCF) after a Protein A chromatography step. Analysis of HMW species was performed by size-exclusion chromatography, analysis of charge variants was performed by ion exchange chromatography, and analysis of N-glycan was performed by ultra-performance liquid chromatography (UPLC) with 2-aminobenzamide (2-AB) labeling.

[2] = test system: recombinant CHO cell line expressing mAb B; test: 10-day fed-batch assay with GMP (Example 2); conditions: for High Molecular Weight / Monomer / Total Acidic Charge Variants: values relative to control
Method: as §1, §2, §3

[3] = test system: recombinant CHO cell lines expressing monoclonal antibodies (mAb A, mAb B, or mAb C); test: 10-day fed-batch assay with GMP (Example 2), statements for all cell lines
Method: as §1, with “After the cells were aliquoted in separate 125 mL test flasks on day 6, GMP was added to the cultures at final concentration of 1 mM or 10 mM. No change in pH and osmolality was observed as a result of the GMP addition. A control condition with no added GMP was also created for each cell line. All conditions were run with two replicates. All cultures were harvested on day 10.” left out
as §2
Antibody titer was analyzed using a mAb-specific reverse-phase high-performance liquid chromatography (HPLC) or analytical Protein A HPLC method. Multiple product quality attributes were analyzed on harvested cell-culture fluid (HCCF) after a Protein A chromatography step. […]

Nc1nc2c(ncn2[C@@H]2O[C@H](COP(=O)(O)O)[C@@H](O)[C@H]2O)c(=O)[nH]1 [Component 6, Guanosine 5′-monophosphate]
Ammonia ([1]; GMP 1 mM): 6.5 mM | High Molecular Weight ([1]; GMP 1 mM): 0.98% | Main Peak ([1]; GMP 1 mM): 0.99% | Total Acidic Charge Variants ([1]; GMP 1 mM): 0.99% | Ammonia ([1]; GMP 10 mM): 4.5 mM | High Molecular Weight ([1]; GMP 10 mM): 0.93% | Main Peak ([1]; GMP 10 mM): 1.00% | Total Acidic Charge Variants ([1]; GMP 10 mM): 1.06% | Ammonia ([2]; GMP 1 mM): 3.2 mM | Lactate ([2]; GMP 1 mM): 0.9 g/L | High Molecular Weight ([2]; GMP 1 mM): 1.06% | Monomer ([2]; GMP 1 mM): 1.0% | Total Acidic Charge Variants ([2]; GMP 1 mM): 0.98% | Ammonia ([2]; GMP 10 mM): 4.2 mM | Lactate ([2]; GMP 10 mM): 1.0 g/L | High Molecular Weight ([2]; GMP 10 mM): 1.65% | Monomer ([2]; GMP 10 mM): 0.99% | Total Acidic Charge Variants ([2]; GMP 10 mM): 0.97% | impact on product yield [3]: no negative impacts | change in pH and osmolality on addition ([3]; GMP 1 mM or 10 mM added day 6): No change | Titer and other product quality attributes (such as charge variants and aggregation) ([3]; all cell lines): largely unaffected
